Experimental data as given in paper PMC6624654.
No constants are given. Whether binding was seen depends on the method and setting. Binding seen in cells or lysates may run through a third protein. Some entries that bind do so weakly or less than the wild type. Sequences can lack the tags named with a protein.

Biological target: T1, GFP-tagged murine KIR2.1 (mouse) (UniProt P35561)
T1 sequence: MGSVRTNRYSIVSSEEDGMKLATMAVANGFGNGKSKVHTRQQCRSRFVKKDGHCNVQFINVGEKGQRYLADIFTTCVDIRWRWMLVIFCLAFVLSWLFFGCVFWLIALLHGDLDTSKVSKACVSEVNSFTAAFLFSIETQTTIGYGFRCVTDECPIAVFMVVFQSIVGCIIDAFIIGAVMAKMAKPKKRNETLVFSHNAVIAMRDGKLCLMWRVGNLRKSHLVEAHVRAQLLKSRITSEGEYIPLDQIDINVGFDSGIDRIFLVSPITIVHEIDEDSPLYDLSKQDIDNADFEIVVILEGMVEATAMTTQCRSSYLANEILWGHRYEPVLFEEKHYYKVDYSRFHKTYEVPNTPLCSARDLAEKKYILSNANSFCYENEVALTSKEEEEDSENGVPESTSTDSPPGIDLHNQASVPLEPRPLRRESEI
Assay: co-IP; HEK293T cells co-transfected with GFP-tagged KIR2.1 and non-tagged WT or ΔPEST KIR2.1; IP with GFP antibody; Western blot with N-terminal KIR2.1 antibody

B1: human WT KIR2.1 (non-tagged) (protein, UniProt P63252 1-427)
chain: MGSVRTNRYSIVSSEEDGMKLATMAVANGFGNGKSKVHTRQQCRSRFVKKDGHCNVQFINVGEKGQRYLADIFTTCVDIRWRWMLVIFCLAFVLSWLFFGCVFWLIALLHGDLDASKEGKACVSEVNSFTAAFLFSIETQTTIGYGFRCVTDECPIAVFMVVFQSIVGCIIDAFIIGAVMAKMAKPKKRNETLVFSHNAVIAMRDGKLCLMWRVGNLRKSHLVEAHVRAQLLKSRITSEGEYIPLDQIDINVGFDSGIDRIFLVSPITIVHEIDEDSPLYDLSKQDIDNADFEIVVILEGMVEATAMTTQCRSSYLANEILWGHRYEPVLFEEKHYYKVDYSRFHKTYEVPNTPLCSARDLAEKKYILSNANSFCYENEVALTSKEEDDSENGVPESTSTDTPPDIDLHNQASVPLEPRPLRRESEI
  binding: binds
